{"source": "patent US20130089557A1", "about": "(SAMSUNG ELECTRONICS, published 2013)", "binders": {"B1": {"name": "YC374 (scFv)", "scFv": "EVQLVESGGGLVQPGGSLRLSCAASGFTFTDYYMSWVRQAPGKGLEWLGFIRNKANGYTTEYSASVKGRFTISRDNSKNTLYLQMNSLRAEDTAVYYCARDNWLTYWGQGTLVTVSSGLGGLGGGGSGGGGSGGSSGVGSDIQMTQSPSSLSASVGDRVTITCKSSQSLLASGNQNNYLAWHQQKPGKAPKMLIIWASTRVSGVPSRFSGSGSGTDFTLTISSLQPEDFATYYCQQSYSAPLTFGQGTKVEIKR"}, "B2": {"name": "YC354 (scFv)", "scFv": "B1 scFv with T105S"}}, "molecular_target": "T1, human c-Met protein (human, UniProt P08581 25-932, limits assumed)", "T1 construct": "also called c-Met antigen", "experiment": "scFv library screening, method not described", "note": "Numbering of substitutions follows the chain as printed. No constants are given. Whether binding was seen depends on the method and setting. Some entries that bind do so weakly or less than the wild type."}
{"binder": "B1", "values": [{"measurement": "binding", "result": "binds"}]}
{"binder": "B2", "values": [{"measurement": "binding", "result": "binds"}]}
